In patent US9921221B2, “Predicting and treating diabetic complications” (Joslin Diabetes Center, Inc., priority 2012, dated 2018):
At least one structure is not confirmed: it was looked up by name or label, or the drawing left a doubt.

System: PK activity in the glomeruli
Test: PK activity in glomeruli of STZ-diabetic DBA mice
Type: in vivo
Details: DBA mice diabetic for 2 and 5 months; IP 50 mg/kg each day for 5 days

CN(N=O)C(=O)N[C@@H](C=O)[C@@H](O)[C@H](O)[C@H](O)CO [STZ, Streptozocin]
PK activity in glomeruli: effective in reducing PK activity
